log2 fold change data for 37 targets are collected here from the supplement of paper PMC10849652.

Protein sequences, listed by entry. Tags and fused reporters are not part of them. Lines headed by an entry give the natural chain unless they say otherwise; changes in a name come on top.
UniProt Q9NZ32, whole entry, looked up: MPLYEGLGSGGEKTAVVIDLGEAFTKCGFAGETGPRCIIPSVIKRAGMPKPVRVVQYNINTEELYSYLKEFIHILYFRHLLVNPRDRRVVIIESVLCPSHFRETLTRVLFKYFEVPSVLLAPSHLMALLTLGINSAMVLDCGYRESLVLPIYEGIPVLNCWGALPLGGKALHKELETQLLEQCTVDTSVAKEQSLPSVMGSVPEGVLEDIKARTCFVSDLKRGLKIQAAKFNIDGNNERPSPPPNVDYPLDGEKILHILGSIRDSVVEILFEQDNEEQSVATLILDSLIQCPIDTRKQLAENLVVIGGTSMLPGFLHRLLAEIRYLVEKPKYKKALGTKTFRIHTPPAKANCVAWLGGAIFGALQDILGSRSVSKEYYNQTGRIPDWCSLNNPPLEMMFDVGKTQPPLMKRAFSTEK
UniProt O14639: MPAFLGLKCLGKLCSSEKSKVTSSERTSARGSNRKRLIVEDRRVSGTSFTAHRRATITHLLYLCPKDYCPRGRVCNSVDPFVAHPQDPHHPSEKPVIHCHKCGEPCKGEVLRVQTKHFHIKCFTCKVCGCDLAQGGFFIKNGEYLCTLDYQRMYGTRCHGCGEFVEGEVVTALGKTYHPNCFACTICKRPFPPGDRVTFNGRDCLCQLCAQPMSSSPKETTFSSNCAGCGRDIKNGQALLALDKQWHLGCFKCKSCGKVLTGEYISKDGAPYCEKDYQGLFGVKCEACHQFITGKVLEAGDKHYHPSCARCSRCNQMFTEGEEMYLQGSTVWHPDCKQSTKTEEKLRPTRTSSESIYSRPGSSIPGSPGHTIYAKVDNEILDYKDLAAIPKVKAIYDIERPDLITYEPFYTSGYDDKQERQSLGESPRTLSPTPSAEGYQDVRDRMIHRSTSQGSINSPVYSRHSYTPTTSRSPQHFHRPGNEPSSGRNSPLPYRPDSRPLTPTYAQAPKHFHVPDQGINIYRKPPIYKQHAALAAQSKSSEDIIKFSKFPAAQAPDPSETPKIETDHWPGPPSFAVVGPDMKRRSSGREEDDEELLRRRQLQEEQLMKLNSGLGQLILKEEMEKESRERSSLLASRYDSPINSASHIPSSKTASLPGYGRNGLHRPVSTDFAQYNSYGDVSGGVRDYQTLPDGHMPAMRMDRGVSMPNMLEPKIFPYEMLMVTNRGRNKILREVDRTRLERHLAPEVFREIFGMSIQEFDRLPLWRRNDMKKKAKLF
UniProt P11117: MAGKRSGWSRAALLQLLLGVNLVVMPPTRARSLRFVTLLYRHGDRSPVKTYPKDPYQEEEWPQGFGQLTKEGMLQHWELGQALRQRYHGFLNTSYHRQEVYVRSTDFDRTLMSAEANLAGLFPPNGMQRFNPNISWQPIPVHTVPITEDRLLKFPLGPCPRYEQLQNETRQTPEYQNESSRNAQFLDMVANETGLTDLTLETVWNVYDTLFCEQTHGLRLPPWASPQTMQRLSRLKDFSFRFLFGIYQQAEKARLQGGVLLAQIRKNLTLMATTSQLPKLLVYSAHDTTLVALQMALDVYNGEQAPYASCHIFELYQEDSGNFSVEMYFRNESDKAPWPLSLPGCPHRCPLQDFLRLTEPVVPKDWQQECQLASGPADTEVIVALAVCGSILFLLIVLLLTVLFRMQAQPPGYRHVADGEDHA
UniProt O00154: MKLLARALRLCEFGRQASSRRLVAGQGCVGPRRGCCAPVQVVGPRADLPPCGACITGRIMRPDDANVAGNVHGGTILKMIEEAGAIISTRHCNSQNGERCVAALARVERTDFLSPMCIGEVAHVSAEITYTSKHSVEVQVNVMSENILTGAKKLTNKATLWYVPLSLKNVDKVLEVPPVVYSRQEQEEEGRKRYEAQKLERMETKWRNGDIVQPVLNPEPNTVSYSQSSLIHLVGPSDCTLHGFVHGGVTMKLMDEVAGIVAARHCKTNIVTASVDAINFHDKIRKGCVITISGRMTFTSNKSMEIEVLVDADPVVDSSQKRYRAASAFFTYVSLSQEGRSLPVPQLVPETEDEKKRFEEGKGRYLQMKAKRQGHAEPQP
UniProt P55265: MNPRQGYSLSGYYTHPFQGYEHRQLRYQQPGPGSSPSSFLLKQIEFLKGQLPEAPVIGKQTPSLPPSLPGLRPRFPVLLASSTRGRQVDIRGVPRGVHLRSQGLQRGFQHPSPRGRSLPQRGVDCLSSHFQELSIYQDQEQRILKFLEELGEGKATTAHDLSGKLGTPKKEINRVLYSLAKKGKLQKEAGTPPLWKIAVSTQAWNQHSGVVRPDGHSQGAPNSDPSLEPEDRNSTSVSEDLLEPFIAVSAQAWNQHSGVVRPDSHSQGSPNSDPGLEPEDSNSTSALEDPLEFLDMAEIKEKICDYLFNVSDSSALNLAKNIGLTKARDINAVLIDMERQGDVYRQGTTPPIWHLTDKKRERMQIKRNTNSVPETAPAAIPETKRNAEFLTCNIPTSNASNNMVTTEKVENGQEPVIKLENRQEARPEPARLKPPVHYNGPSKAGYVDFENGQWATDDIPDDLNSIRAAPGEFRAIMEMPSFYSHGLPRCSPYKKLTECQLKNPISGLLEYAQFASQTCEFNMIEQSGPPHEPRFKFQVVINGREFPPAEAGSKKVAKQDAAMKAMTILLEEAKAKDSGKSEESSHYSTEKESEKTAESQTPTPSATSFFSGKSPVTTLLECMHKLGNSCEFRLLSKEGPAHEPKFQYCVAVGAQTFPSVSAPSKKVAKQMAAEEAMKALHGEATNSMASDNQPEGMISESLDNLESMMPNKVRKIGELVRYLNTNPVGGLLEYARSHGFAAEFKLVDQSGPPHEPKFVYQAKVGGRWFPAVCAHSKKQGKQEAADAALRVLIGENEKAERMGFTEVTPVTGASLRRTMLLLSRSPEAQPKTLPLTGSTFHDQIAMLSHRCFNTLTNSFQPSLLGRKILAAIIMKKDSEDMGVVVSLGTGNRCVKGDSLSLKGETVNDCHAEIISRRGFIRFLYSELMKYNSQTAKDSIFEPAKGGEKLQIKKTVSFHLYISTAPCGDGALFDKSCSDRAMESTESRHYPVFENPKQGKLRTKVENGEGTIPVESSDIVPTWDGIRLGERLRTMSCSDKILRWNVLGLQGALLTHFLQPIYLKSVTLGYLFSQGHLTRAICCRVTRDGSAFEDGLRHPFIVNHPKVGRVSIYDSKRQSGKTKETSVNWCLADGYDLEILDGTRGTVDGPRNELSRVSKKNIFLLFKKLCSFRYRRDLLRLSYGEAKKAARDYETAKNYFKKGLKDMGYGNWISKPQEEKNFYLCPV
UniProt P49588, whole entry, looked up: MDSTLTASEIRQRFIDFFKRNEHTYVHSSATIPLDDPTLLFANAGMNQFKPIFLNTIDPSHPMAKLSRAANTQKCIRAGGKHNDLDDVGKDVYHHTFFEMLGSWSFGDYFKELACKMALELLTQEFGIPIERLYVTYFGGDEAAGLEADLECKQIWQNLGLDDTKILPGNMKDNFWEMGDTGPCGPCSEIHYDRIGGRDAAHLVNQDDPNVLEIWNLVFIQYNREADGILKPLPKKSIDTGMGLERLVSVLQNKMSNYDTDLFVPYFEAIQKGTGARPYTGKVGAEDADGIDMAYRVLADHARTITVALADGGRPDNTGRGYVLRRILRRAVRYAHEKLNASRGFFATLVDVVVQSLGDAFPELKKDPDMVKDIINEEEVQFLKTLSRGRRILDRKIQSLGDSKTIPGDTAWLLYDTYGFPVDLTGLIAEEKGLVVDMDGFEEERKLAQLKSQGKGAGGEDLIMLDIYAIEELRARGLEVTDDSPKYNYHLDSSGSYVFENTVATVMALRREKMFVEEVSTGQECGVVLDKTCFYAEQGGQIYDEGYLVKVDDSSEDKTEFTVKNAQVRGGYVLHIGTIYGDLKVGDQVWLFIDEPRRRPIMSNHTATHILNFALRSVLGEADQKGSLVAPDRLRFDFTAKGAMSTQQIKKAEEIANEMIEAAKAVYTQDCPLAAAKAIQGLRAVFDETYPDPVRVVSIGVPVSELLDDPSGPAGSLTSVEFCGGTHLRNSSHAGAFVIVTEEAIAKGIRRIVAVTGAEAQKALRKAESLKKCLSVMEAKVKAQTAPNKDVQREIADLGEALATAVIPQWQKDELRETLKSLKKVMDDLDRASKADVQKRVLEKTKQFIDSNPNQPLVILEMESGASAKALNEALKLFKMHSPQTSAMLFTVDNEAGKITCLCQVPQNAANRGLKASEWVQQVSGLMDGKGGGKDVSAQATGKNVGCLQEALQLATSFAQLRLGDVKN
UniProt P33121: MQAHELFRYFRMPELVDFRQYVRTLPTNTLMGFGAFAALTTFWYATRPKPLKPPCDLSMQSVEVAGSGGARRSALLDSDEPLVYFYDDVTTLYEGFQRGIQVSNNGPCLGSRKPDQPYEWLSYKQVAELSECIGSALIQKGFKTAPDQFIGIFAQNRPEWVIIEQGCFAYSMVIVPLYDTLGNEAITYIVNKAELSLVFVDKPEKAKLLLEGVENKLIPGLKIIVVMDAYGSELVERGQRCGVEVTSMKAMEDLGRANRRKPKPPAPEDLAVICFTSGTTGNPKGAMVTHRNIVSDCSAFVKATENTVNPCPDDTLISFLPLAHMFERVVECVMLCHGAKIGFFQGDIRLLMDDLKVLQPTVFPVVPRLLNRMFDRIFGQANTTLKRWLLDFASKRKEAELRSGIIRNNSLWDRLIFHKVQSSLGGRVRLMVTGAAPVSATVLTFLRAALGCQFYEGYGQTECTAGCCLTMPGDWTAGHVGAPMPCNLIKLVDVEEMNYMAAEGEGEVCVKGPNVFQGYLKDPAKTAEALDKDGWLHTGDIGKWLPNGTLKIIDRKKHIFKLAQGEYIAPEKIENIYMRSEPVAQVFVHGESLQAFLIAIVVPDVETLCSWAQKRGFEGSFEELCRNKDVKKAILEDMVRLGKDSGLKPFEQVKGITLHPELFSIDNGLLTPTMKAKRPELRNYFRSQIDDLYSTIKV
UniProt Q9H7C9: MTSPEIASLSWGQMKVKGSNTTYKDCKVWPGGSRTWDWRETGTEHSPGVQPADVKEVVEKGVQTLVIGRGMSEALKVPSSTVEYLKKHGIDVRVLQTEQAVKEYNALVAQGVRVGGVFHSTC
UniProt P42765: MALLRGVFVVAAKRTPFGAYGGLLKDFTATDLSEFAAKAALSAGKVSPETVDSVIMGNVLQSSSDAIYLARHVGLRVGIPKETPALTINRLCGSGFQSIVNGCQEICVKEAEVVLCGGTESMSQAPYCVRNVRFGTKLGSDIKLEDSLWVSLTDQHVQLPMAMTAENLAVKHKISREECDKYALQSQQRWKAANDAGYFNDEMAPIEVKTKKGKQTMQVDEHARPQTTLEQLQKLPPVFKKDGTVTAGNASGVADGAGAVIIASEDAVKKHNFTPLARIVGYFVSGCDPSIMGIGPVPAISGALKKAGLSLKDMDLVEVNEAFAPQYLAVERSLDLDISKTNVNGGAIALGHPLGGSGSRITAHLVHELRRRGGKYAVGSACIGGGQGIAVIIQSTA
UniProt Q9ULC5: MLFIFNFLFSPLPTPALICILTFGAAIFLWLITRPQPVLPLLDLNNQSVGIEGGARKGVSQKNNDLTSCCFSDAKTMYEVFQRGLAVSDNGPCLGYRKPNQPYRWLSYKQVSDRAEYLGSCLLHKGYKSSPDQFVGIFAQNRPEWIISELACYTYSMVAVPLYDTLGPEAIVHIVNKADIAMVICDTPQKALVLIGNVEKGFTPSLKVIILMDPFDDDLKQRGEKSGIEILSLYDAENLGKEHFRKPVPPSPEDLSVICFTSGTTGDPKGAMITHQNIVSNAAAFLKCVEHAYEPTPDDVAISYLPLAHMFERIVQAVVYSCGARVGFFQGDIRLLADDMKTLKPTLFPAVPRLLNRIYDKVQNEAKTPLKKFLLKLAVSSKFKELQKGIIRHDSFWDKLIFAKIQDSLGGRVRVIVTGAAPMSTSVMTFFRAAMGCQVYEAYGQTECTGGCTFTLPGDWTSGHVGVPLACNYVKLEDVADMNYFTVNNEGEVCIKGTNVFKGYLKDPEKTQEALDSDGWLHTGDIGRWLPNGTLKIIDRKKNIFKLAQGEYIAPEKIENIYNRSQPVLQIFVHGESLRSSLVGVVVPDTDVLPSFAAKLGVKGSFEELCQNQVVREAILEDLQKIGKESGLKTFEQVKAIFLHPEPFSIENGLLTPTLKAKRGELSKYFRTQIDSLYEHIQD
UniProt P11310: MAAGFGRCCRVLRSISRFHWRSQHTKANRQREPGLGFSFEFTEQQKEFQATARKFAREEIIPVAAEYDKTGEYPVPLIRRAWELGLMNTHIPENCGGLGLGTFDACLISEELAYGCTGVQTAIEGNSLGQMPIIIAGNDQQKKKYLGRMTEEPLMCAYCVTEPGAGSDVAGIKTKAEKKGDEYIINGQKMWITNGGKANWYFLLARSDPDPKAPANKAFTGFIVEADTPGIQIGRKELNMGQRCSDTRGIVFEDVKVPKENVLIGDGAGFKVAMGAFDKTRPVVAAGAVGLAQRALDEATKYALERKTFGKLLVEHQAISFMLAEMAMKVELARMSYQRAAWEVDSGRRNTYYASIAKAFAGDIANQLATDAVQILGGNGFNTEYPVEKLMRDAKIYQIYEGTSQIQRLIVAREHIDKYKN

The other results are listed elsewhere or left out.

Compound in this assay: Cc1cn(-c2cc(NC(=O)c3ccc(C)c(Nc4nccc(-c5cccnc5)n4)c3)cc(C(F)(F)F)c2)cn1 [nilotinib]
The experiment in a line: log2 fold change, soluble protein after heating vs DMSO (PISA); higher = thermal stabilisation; K562 cells, 10 uM, 30 min; active = over 0.2 and 3.5 SD of the protein, either way, in both replicates (recomputed). Put shortly:
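K562 cells at 2×10^6 cells/mL were exposed to 10 μM compound for 30 min, then aliquots were heated for 3 min across 48°C-58°C, pooled, and extracted in PBS containing 0.5% NP-40 at 4°C. The supernatant after 21,000xg for 90 min was taken as soluble protein and measured by TMTpro 16plex LC-MS/MS with channel sums equalised. Thermal stability is reported relative to control samples, with values from duplicates. Fold changes are given on a log2 scale.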
Regarding ACTR2 (UniProt P61160), the log2 fold change is inactive: 0.067. ACBD6 (UniProt Q9BR61): the log2 fold change was inactive: 0.017. The result for ACTR10 (UniProt Q9NZ32) reads inactive: -0.002; that for ACSS1 (UniProt Q9NUB1), inactive: -0.054; that for A2M (UniProt P01023), inactive: 0.045. With ACAD8 (UniProt Q9UKU7), the log2 fold change is inactive: -0.029. As to ACTR6 (UniProt Q9GZN1), the log2 fold change was inactive: -0.045. Consider ABLIM1 (UniProt O14639), for which the log2 fold change is inactive: 0.005. Next, ACP2 (UniProt P11117): inactive: 0.002. As to ABCB10 (UniProt Q9NRK6), the log2 fold change is inactive: -0.019. For ABCB8 (UniProt Q9NUT2), the log2 fold change is inactive: -0.017.

With ADAM10 (UniProt O14672), the log2 fold change was inactive: 0.03. In the case of ADAT2 (UniProt Q7Z6V5), the log2 fold change was inactive: -0.014.

As for ACOT7 isoform 7 (UniProt O00154), the log2 fold change was inactive: 0.031. For the target ACADSB (UniProt P45954), the log2 fold change was inactive: 0.08.

Take ADAM9 (UniProt Q13443): the log2 fold change is inactive: -0.03. The result for ABCE1 (UniProt P61221) reads inactive: 0.023; that for ACAT2 (UniProt Q9BWD1), inactive: 0.036; that for ACOT8 (UniProt O14734), inactive: 0.001. The result for ACIN1 (UniProt Q9UKV3) reads inactive: 0.086; that for ADAR isoform 4 (UniProt P55265), inactive: -0.138. Next, AARS (UniProt P49588): inactive: -0.047; ACTN4 (UniProt O43707): inactive: 0.014.

Regarding ACBD3 (UniProt Q9H3P7), the log2 fold change was inactive: 0.019. With ACTR3 (UniProt P61158), the log2 fold change was inactive: 0.078.

ACSL1 (UniProt P33121): the log2 fold change is inactive: -0.003. Next, ABHD17A isoform 2 (UniProt Q96GS6): inactive: -0.054; AAMP (UniProt Q13685): inactive: 0.009. Next, ACLY (UniProt P53396): inactive: -0.068.

On to AAMDC (UniProt Q9H7C9), for which the log2 fold change is inactive: 0.046. The result for ACTR1A (UniProt P61163) reads inactive: -0.018. Consider ACAD9 (UniProt Q9H845), for which the log2 fold change was inactive: 0.

As to ABHD14B (UniProt Q96IU4), the log2 fold change is inactive: 0.004.

For ACAA2 (UniProt P42765), the log2 fold change is inactive: 0. Next, ABCC1 (UniProt P33527): inactive: 0.033. ACSL5 isoform 3 (UniProt Q9ULC5): the log2 fold change is inactive: -0.055. Turning to ACADM isoform 2 (UniProt P11310), the log2 fold change is inactive: -0.013.
